Reference: US20250163186A1
These are yes or no findings as the source states them, for the method shown. Some binding calls cover weakened binding; strength is not graded here. Tags and fused reporters may be left off the sequences shown.

Protein sequences, listed by entry. Tags and fused reporters are not part of them. Lines headed by an entry give the natural chain unless they say otherwise; changes in a name come on top. Chains listed by the source or under a name are the forms on record and can include a tag or linker.
human IgM (Novus, NBP1-97056) (P01871, form named): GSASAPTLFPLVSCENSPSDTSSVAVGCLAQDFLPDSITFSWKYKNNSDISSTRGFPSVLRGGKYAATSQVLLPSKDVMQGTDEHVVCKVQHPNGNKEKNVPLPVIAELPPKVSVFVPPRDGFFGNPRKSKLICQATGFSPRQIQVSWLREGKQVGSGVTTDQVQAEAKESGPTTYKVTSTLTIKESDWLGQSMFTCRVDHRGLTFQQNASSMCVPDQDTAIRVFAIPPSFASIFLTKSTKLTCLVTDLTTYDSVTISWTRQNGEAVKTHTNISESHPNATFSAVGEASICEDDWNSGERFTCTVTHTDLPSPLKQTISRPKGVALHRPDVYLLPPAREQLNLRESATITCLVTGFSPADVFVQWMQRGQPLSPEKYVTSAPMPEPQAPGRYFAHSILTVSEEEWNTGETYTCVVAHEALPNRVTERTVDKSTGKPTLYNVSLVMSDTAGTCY
Human IgD (AbCam, Cat. No. Ab91022) (P01880, form named): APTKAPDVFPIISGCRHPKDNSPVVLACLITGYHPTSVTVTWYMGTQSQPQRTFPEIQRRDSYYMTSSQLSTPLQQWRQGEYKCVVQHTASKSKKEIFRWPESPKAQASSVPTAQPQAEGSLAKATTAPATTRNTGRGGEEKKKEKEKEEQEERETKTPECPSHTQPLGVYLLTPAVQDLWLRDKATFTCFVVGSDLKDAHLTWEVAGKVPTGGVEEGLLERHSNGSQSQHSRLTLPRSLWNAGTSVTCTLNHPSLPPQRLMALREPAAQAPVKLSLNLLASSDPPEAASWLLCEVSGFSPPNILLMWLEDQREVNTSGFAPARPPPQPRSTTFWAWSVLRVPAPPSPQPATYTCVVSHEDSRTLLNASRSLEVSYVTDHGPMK

Assays:
[1] = biological target: human IgM (Novus, NBP1-97056) (human) (UniProt P01871); assay: ELISA, plate-coated immunoglobulin
[2] = biological target: Human IgD (AbCam, Cat. No. Ab91022) (human) (UniProt P01880); assay: ELISA, plate-coated immunoglobulin

B1: cx10710, comprising IgG1 SELF Fc (antibody, V domains shown)
VH: QVQLQESGPGLVKPSETLSLTCAVSGYSITSGYSWNWIRQPPGKKLEWIGSITYDGSSNYNPSLKSRVTISRDTSKNQFSLKLSSVTAADTAVYYCARGSHYFGHWHFAVWGAGTLVTVSS
VL: DIQLTQSPSSLSASVGDRVTITCRASQSVDYDGDSYMNWYQQKPGQPPKLLIYAASYLGSEIPARFSGSGSGTDFTLTISSLQPEDFATYYCQQSHEDPYTFGAGTKLEIKR
B1 was tested, and the binding [1] was “binds” and the binding [2] was “binds”.
